{"source": "paper PMC11620517", "about": "“Novel hydrazone compounds with broad-spectrum antiplasmodial activity and synergistic interactions with antimalarial drugs” (Antimicrobial Agents and Chemotherapy, 2024)", "data": [{"test_system": "HepG2 cells", "test": "In vitro toxicity assessment in HepG2 cells", "values": [{"smiles": "COc1cccc(/C=N/NC(=O)c2cc(-c3ccccc3)nc3ccccc23)c1O", "note": "[CB-58]", "SI (relative to WR288510-3)": ">100-fold"}, {"smiles": "O=C(Nc1cc(Cl)ccc1O)c1cc2nc(-c3ccccc3)cc(-c3ccccc3)n2n1", "note": "[CB-59]", "SI (relative to WR288510-3)": ">100-fold"}, {"smiles": "O=C(NN=Cc1ccccc1O)c1cc(-c2ccccc2)nc2ccccc12", "note": "[CB-53]", "SI (relative to WR288510-3)": ">100-fold"}, {"smiles": "O=C(N/N=C/c1c(O)ccc2ccccc12)c1cc([N+](=O)[O-])cc([N+](=O)[O-])c1", "note": "[CB-61]", "SI (relative to WR288510-3)": ">100-fold"}, {"smiles": "O=C(N/N=C/c1cc(Br)ccc1O)/C(=C/C=C/c1ccccc1)NC(=O)c1ccccc1", "note": "[CB-50]", "SI (relative to WR288510-3)": ">100-fold"}, {"smiles": "COc1cccc(/C=N/NC(=O)c2nc(-c3ccccc3)cc(-c3ccccc3)n2)c1O", "note": "[CB-41]", "SI (relative to WR288510-3)": ">100-fold"}]}]}
